Measurements taken from the supplement of paper PMC6078165.

Tested on: HCC1143
Assay: relative JC-1 red fluorescence (viability) vs pre-drug, coculture with fibroblast (fraction); higher = more viable cancer cells
Experimental: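 JC-1 labelled TNBC cells cocultured 1:1 (1,500 cells each) with CellTrace Violet stained primary or stromal fibroblasts in 384-well plates in FluoroBrite medium, treated with one of 42 anticancer drugs at 0.1, 1, 10 or 100 uM. JC-1 red fluorescence (mitochondrial integrity in cancer cells only) was read by plate reader every 8 h for 72 h. Values are normalised to each well's pre-drug value. The stock of one drug was tenfold lower, so its dose labels may be too high.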

O=C(O)C(=O)O.[NH-][C@@H]1CCCC[C@H]1[NH-].[Pt+2] [Oxaliplatin]
relative JC-1 red fluorescence
Conditions	8 h	16 h	24 h	32 h	40 h	48 h	56 h	64 h	72 h
0.1 µM, coculture fibroblast: C12385	0.83151	0.7687	0.731	0.6773	0.6253	0.609	0.5856	0.567	0.57
0.1 µM, coculture fibroblast: H6013	0.826	0.805	0.784	0.782	0.732	0.746	0.719	0.71	0.679
0.1 µM, coculture fibroblast: H6019	0.815	0.747	0.719	0.668	0.633	0.64	0.593	0.561	0.526
0.1 µM, coculture fibroblast: H6076	0.8346	0.828	0.809	0.773	0.726	0.726	0.697	0.675	0.694
0.1 µM, coculture fibroblast: H6231	0.797	0.824	0.767	0.671	0.694	0.669	0.634	0.607	0.591
0.1 µM, coculture fibroblast: HADF	0.743	0.693	0.661	0.6701	0.5848	0.57221	0.5514	0.5352	0.5082
0.1 µM, coculture fibroblast: HCFa	0.817	0.771	0.734	0.726	0.664	0.655	0.609	0.587	0.546
0.1 µM, coculture fibroblast: HCPF	0.804	0.7893	0.74	0.658	0.641	0.613	0.573	0.54	0.531
0.1 µM, coculture fibroblast: HHSteC	0.8612	0.816	0.788	0.761	0.702	0.679	0.64	0.614	0.569
0.1 µM, coculture fibroblast: HMF	0.803	0.832	0.762	0.6805	0.669	0.647	0.615	0.593	0.577
0.1 µM, coculture fibroblast: HPFa	0.914	0.845	0.825	0.754	0.699	0.671	0.621	0.581	0.546
0.1 µM, coculture fibroblast: HUF	0.8834	0.82	0.787	0.723	0.678	0.672	0.639	0.622	0.596
0.1 µM, coculture fibroblast: Hs5	0.862	0.8922	0.8467	0.8129	0.7569	0.7298	0.7032	0.6782	0.679
0.1 µM, coculture fibroblast: Hs27A	0.727	0.7	0.673	0.694	0.589	0.594	0.56	0.539	0.506
0.1 µM, coculture fibroblast: Hs343T	0.813	0.802	0.77	0.713	0.662	0.651	0.612	0.591	0.58
0.1 µM, coculture fibroblast: WS1	0.8142	0.753	0.73	0.666	0.626	0.617	0.579	0.559	0.552
1 µM, coculture fibroblast: C12385	0.8274	0.7219	0.643	0.579	0.51	0.455	0.408	0.368	0.343
1 µM, coculture fibroblast: H6013	0.758	0.667	0.65	0.648	0.58	0.576	0.551	0.532	0.517
1 µM, coculture fibroblast: H6019	0.824	0.741	0.692	0.643	0.605	0.579	0.542	0.509	0.48
1 µM, coculture fibroblast: H6076	0.799	0.805	0.774	0.718	0.706	0.701	0.678	0.662	0.663
1 µM, coculture fibroblast: H6231	0.7982	0.8233	0.711	0.578	0.614	0.572	0.537	0.51	0.489
1 µM, coculture fibroblast: HADF	0.71	0.625	0.597	0.617	0.527	0.505	0.479	0.459	0.471
1 µM, coculture fibroblast: HCFa	0.781	0.684	0.656	0.652	0.572	0.545	0.512	0.485	0.468
1 µM, coculture fibroblast: HCPF	0.796	0.817	0.755	0.633	0.665	0.642	0.605	0.572	0.553
1 µM, coculture fibroblast: HHSteC	0.832	0.734	0.695	0.654	0.589	0.559	0.523	0.498	0.462
1 µM, coculture fibroblast: HMF	0.814	0.805	0.762	0.67	0.69	0.671	0.644	0.62	0.59
1 µM, coculture fibroblast: HPFa	0.946	0.8749	0.8548	0.7844	0.7438	0.72	0.677	0.639	0.606
1 µM, coculture fibroblast: HUF	0.885	0.778	0.729	0.672	0.634	0.602	0.556	0.532	0.502
1 µM, coculture fibroblast: Hs5	0.838	0.863	0.793	0.737	0.694	0.66	0.627	0.6	0.579
1 µM, coculture fibroblast: Hs27A	0.689	0.616	0.584	0.624	0.505	0.498	0.468	0.442	0.452
1 µM, coculture fibroblast: Hs343T	0.805	0.847	0.779	0.646	0.688	0.655	0.598	0.576	0.545
1 µM, coculture fibroblast: WS1	0.848	0.758	0.7241	0.661	0.624	0.5857	0.5487	0.519	0.496
10 µM, coculture fibroblast: C12385	0.8253	0.768	0.726	0.67	0.617	0.574	0.546	0.515	0.494
10 µM, coculture fibroblast: H6013	0.76036	0.6998	0.6802	0.67	0.6167	0.6195	0.598	0.589	0.552
10 µM, coculture fibroblast: H6019	0.82583	0.7628	0.7	0.638	0.596	0.562	0.52	0.482	0.454
10 µM, coculture fibroblast: H6076	0.813	0.839	0.781	0.715	0.701	0.687	0.661	0.64	0.649
10 µM, coculture fibroblast: H6231	0.843	0.837	0.79	0.683	0.714	0.686	0.662	0.619	0.601
10 µM, coculture fibroblast: HADF	0.6965	0.6473	0.6218	0.634	0.535	0.515	0.4908	0.4714	0.516
10 µM, coculture fibroblast: HCFa	0.808	0.731	0.696	0.686	0.606	0.59	0.553	0.523	0.508
10 µM, coculture fibroblast: HCPF	0.796	0.836	0.78437	0.661	0.719	0.693	0.679	0.655	0.65
10 µM, coculture fibroblast: HHSteC	0.858	0.828	0.821	0.805	0.766	0.75	0.714	0.687	0.638
10 µM, coculture fibroblast: HMF	0.7984	0.8417	0.778	0.668	0.686	0.652	0.621	0.596	0.567
10 µM, coculture fibroblast: HPFa	0.8949	0.804	0.763	0.665	0.6132	0.5849	0.534	0.493	0.458
10 µM, coculture fibroblast: HUF	0.8813	0.801	0.758	0.701	0.663	0.642	0.603	0.567	0.543
10 µM, coculture fibroblast: Hs5	0.86	0.892	0.844	0.815	0.766	0.742	0.72	0.69	0.695
10 µM, coculture fibroblast: Hs27A	0.697	0.625	0.5903	0.6267	0.513	0.511	0.492	0.481	0.509
10 µM, coculture fibroblast: Hs343T	0.83	0.858	0.803	0.708	0.71	0.68	0.635	0.612	0.571
10 µM, coculture fibroblast: WS1	0.838	0.7628	0.7063	0.6372	0.5875	0.549	0.503	0.471	0.443
100 µM, coculture fibroblast: C12385	0.809	0.641	0.53	0.439	0.38	0.348	0.325	0.293	0.279
100 µM, coculture fibroblast: H6013	0.693	0.532	0.46375	0.404	0.36285	0.362	0.3282	0.3161	0.257
100 µM, coculture fibroblast: H6019	0.7944	0.668	0.614	0.537	0.488	0.461	0.418	0.39	0.364
100 µM, coculture fibroblast: H6076	0.808	0.711	0.6336	0.586	0.513	0.489	0.452	0.423	0.424
100 µM, coculture fibroblast: H6231	0.8035	0.795	0.6216	0.542	0.477	0.446	0.399	0.368	0.347
100 µM, coculture fibroblast: HADF	0.732	0.628	0.57	0.534	0.464	0.454	0.424	0.406	0.35
100 µM, coculture fibroblast: HCFa	0.763	0.628	0.569	0.524	0.451	0.431	0.384	0.36	0.313
100 µM, coculture fibroblast: HCPF	0.8074	0.803	0.718	0.618	0.602	0.568	0.524	0.495	0.485
100 µM, coculture fibroblast: HHSteC	0.832	0.739	0.696	0.648	0.6	0.589	0.552	0.533	0.473
100 µM, coculture fibroblast: HMF	0.83153	0.795	0.704	0.632	0.572	0.533	0.492	0.465	0.443
100 µM, coculture fibroblast: HPFa	0.861	0.673	0.608	0.523	0.468	0.457	0.415	0.396	0.381
100 µM, coculture fibroblast: HUF	0.8788	0.743	0.644	0.546	0.491	0.466	0.429	0.403	0.385
100 µM, coculture fibroblast: Hs5	0.8722	0.8423	0.74	0.709	0.6304	0.6094	0.582	0.553	0.562
100 µM, coculture fibroblast: Hs27A	0.659	0.537	0.487	0.49	0.417	0.426	0.401	0.395	0.346
100 µM, coculture fibroblast: Hs343T	0.7909	0.7902	0.653	0.561	0.516	0.47	0.42	0.388	0.36
100 µM, coculture fibroblast: WS1	0.7914	0.602	0.508	0.427	0.37	0.344	0.314	0.299	0.287

The reference is the same well before dosing, and untreated signal decays as well.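 Fibroblast labels name human fibroblasts: mostly primary ones from tissues such as uterus (C12385, HUF), lung (H6013), bone (Hs27A), adrenal (HADF) and skin (WS1), plus mammary HMF and breast cancer-associated Hs343T. The cancer cells are basal-like or mesenchymal-like triple-negative breast cancer lines. The paper calls a changed response a hit when it shifts by more than 3x the replicate standard deviation. The tissue of the other fibroblasts is not given here.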
